Experimental data published in patent US20140275490A1.
Results are given in words; binding and its absence hold for the method and conditions named. Some entries that bind do so weakly or less than the wild type.

Amino acid sequences for entries named in this document (tags omitted). A change or cut given only in a name is not applied to a line headed by its entry.
UniProt Q5VWK5: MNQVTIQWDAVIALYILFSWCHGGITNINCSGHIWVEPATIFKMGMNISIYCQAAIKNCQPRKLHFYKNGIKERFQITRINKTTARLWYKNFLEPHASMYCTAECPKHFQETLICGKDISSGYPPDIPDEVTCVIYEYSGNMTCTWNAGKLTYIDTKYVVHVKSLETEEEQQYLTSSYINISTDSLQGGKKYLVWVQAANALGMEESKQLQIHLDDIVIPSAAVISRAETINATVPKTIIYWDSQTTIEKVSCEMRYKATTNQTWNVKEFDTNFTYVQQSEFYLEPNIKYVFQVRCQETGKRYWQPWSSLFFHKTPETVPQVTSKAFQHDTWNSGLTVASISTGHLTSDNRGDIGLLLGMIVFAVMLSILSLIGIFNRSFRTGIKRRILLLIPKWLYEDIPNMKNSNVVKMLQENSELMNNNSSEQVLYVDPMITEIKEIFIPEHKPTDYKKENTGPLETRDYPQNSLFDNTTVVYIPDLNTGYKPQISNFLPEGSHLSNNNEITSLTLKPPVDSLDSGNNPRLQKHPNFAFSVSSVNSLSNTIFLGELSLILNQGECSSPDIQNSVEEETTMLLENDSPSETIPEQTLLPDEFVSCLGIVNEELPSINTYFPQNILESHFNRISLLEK

These binders were tested against human IL-23R-mouse Fc fusion protein (human; mouse) (UniProt Q5VWK5) (assay: antigen ELISA, human IL-23R-Fc immobilized).

Row | Binder | binding
1 | 32-28 (chimeric) (antibody, V domains shown) VH: QVHLVQSGTEVRKPGASVKVSCKVSGYTLNELAIHWVRQAPGKGLEWMGGFDPEHGEIIYAQRFQGRVTLPEDTSTDTAYLDLFNLRSEDTAVYFCATEAAPFDYWGQGTLVIVSS VL: DIQMTQSPSTLSASVGDRVTITCRASQSLSSWLAWYQQKPGKAPKLLIYKASSLESGVPSRFSGSGSGTDFTLTISSLQPDDFATYYCQQYDIYPRTFGQGTKVEIKR | binds
2 | 34-58 (chimeric) (antibody, V domains shown) VH: QVHLVQSGTEVRKPGASVKVSCKVSGYTLNELAIHWVRQAPGKGLEWMGGFDPEHGEIIYAQRFQGRITLPEDTSTDTAYMDLVNLRSEDTAVYFCTTEAAPFDYWGQGSLVIVSS VL: DIQMTQSPSTLSASVGDRVTITCRASQSLSNWLAWYQQKPGKAPKLLIYKASSLESGVPSRFSGSGSGTDFTLTISGLQPDDFATYYCQQYDIYPRTFGQGTKVEIKR | binds
3 | 25-3 (chimeric) (antibody, V domains shown) VH: QVQLQESGPGQVKPSQTLSLTCSVSGGSIDSGDHYWTWIRQHPGEVLEWIGYIYSSGHTYYSPSLKSRLTMSLDTSKNQFSLRLSSVTAADTAVYYCARVGDYEWFDTWGQGTLVTVSS VL: DIVMTQSPDSLAVSLGERATINCKSSQTILYPSNNMNYLGWYQQRAGQSPRLLIYWASTRESGVPDRFSGSGSGTDFTLTISSLQAEDVAVYYCQQYYSSLPTFGQGTKVEIKR | binds
4 | fully human antibody 25-3 (antibody, human IgG1, kappa, V domains shown) VH: QVQLQESGPGQVKPSQTLSLTCSVSGGSIDSGDHYWTWIRQHPGEVLEWIGYIYSSGHTYYSPSLKSRLTMSLDTSKNQFSLRLSSVTAADTAVYYCARVGDYEWFDTWGQGTLVTVSS VL: DIVMTQSPDSLAVSLGERATINCKSSQTILYPSNNMNYLGWYQQRAGQSPRLLIYWASTRESGVPDRFSGSGSGTDFTLTISSLQAEDVAVYYCQQYYSSLPTFGQGTKVEIKR | binds
5 | 30-15 (chimeric) (antibody, V domains shown) VH: QVQLVQSGAEVKKPGASMKVSCKVSGYTLNELSIHWVRQAPGKGLEWMGGFDPEHGETVYAQNFQDRVTLTEDTSTDTSYMGLNNLRSDDTAVYYCAAESYGDYEFWGQGTLVTVSS VL: DIQMTQSPSSVSASVGDRVTITCRASQGINNWLAWYQQKPGKAPKVLIYTASSLQSGVPSRFSGSGSGTDFTLTISSLQPEDFATYYCQQANSHPWTFGQGTKVEIKR | binds
6 | 30-16 (chimeric) (antibody, V domains shown) VH: QVQVVQSGAEVKKPGASVKVSCKVSGYTLIELAIHWVRQVPGKGLEWMGGFDPEHGETIYAQKFQGRVTMTEDTSTDTAYMELNNLRSEDTAVYYCAILEAGDLDCWGQGTLVTVSS VL: DIQMTQSPSSVSASVGDRVTITCRASQGISNWLAWYQQKPGKAPKVLIYTASSLQSGVPSRFSGSGSGTDFTLTVSGLQPEDFGTYYCQQANSFPFTFGPGTKVDIKR | binds
7 | 30-18 (chimeric) (antibody, V domains shown) VH: QVQLVQSGAEVKKPGASVKVSCKVSGYTLNELSIHWVRQAPGKGLEWMGGFDPEHSETLYAQNFQDRLTLTEDTSTETACMELNSLRSDDTAVYYCAAESYGDYEFWGQGTLVTVSS VL: DIQMTQSPSSVSASVGDRVTITCRASQDISSWLAWYQQKPGKAPKVLIYTASSLQSGVPSRFSGSGSGTDFTLTISSLQPEDFATYYCQQANSHPWTFGQGTKVEIKR | binds

Continued, values first:

Row | binding | Binder
8 | binds | fully human antibody 34-58 (antibody, human IgG1, kappa, V domains shown) VH: QVHLVQSGTEVRKPGASVKVSCKVSGYTLNELAIHWVRQAPGKGLEWMGGFDPEHGEIIYAQRFQGRITLPEDTSTDTAYMDLVNLRSEDTAVYFCTTEAAPFDYWGQGSLVIVSS VL: DIQMTQSPSTLSASVGDRVTITCRASQSLSNWLAWYQQKPGKAPKLLIYKASSLESGVPSRFSGSGSGTDFTLTISGLQPDDFATYYCQQYDIYPRTFGQGTKVEIKR
9 | binds | fully human antibody 32-28 (antibody, human IgG1, kappa, V domains shown) VH: QVHLVQSGTEVRKPGASVKVSCKVSGYTLNELAIHWVRQAPGKGLEWMGGFDPEHGEIIYAQRFQGRVTLPEDTSTDTAYLDLFNLRSEDTAVYFCATEAAPFDYWGQGTLVIVSS VL: DIQMTQSPSTLSASVGDRVTITCRASQSLSSWLAWYQQKPGKAPKLLIYKASSLESGVPSRFSGSGSGTDFTLTISSLQPDDFATYYCQQYDIYPRTFGQGTKVEIKR
10 | binds | fully human antibody 30-15 (antibody, human IgG1, kappa, V domains shown) VH: QVQLVQSGAEVKKPGASMKVSCKVSGYTLNELSIHWVRQAPGKGLEWMGGFDPEHGETVYAQNFQDRVTLTEDTSTDTSYMGLNNLRSDDTAVYYCAAESYGDYEFWGQGTLVTVSS VL: DIQMTQSPSSVSASVGDRVTITCRASQGINNWLAWYQQKPGKAPKVLIYTASSLQSGVPSRFSGSGSGTDFTLTISSLQPEDFATYYCQQANSHPWTFGQGTKVEIKR
11 | binds | fully human antibody 30-16 (antibody, human IgG1, kappa, V domains shown) VH: QVQVVQSGAEVKKPGASVKVSCKVSGYTLIELAIHWVRQVPGKGLEWMGGFDPEHGETIYAQKFQGRVTMTEDTSTDTAYMELNNLRSEDTAVYYCAILEAGDLDCWGQGTLVTVSS VL: DIQMTQSPSSVSASVGDRVTITCRASQGISNWLAWYQQKPGKAPKVLIYTASSLQSGVPSRFSGSGSGTDFTLTVSGLQPEDFGTYYCQQANSFPFTFGPGTKVDIKR
12 | binds | fully human antibody 30-18 (antibody, human IgG1, kappa, V domains shown) VH: QVQLVQSGAEVKKPGASVKVSCKVSGYTLNELSIHWVRQAPGKGLEWMGGFDPEHSETLYAQNFQDRLTLTEDTSTETACMELNSLRSDDTAVYYCAAESYGDYEFWGQGTLVTVSS VL: DIQMTQSPSSVSASVGDRVTITCRASQDISSWLAWYQQKPGKAPKVLIYTASSLQSGVPSRFSGSGSGTDFTLTISSLQPEDFATYYCQQANSHPWTFGQGTKVEIKR
